Results on 22 compounds are retold here after publication PMC12040169 (PLOS Biology, 2025).

Molecules are shown by their SMILES. The list shows a part of the results.

The test system of the assay is T1, CTL2-GFP (C. trachomatis L2/434/Bu, GFP-expressing).
T1 construct: L2/434/Bu, GFP-expressing
On the set-up: species or system HeLa; Intracellular C. trachomatis growth in HeLa cells, bulk GFP fluorescence relative to DMSO. The settings on record: bulk GFP, single well; 28.5 h, 10 µM; inhibitor.
For `Nc1ncc(-c2cccc(F)c2)nc1-c1ccc(C(=O)N2CCOCC2)cc1` [CBK064131], the “% of control remaining” value was found to be 156.846%.

On to `O=[N+]([O-])c1ccc(C(O)CNC(=S)Nc2ccccc2)cc1` (stereo not shown) [CBK261086], for which the “% of control remaining” value is listed as 81.9815%.

With `O=C(NCc1ccccn1)c1ccc(-n2ccnc2)c(-n2cccc2)c1` [CBK285347], the “% of control remaining” value is reported as 137.684%.

Turning to `O=C(CC1CS(=O)(=O)CC1CC(=O)Nc1cccc(Cl)c1Cl)Nc1cccc(Cl)c1Cl` (stereo not shown) [CBK262404], the “% of control remaining” value turned out to be 129.609%.

With `O=C(NCc1n[nH]c(=O)c2ccccc12)Nc1ccc(F)cc1` [CBK287744], the “% of control remaining” value was 99.8443%.

Take `COc1ccc(-n2cc(-c3ccc(C(F)(F)F)cc3)nn2)cc1OC` [CBK112952]: the “% of control remaining” value is on record as 129.807%.

Turning to `c1ccc2cc(-c3cn4ccnc4c(Nc4ccc(N5CCOCC5)cc4)n3)ccc2c1` [CBK066359], the “% of control remaining” value was 92.8116%.

With `CCc1n[nH]c(C2CN(Cc3nc4c(F)cccc4[nH]3)CCO2)n1` (stereo not shown) [CBK304117], the “% of control remaining” value was 146.649%.

On to `CCOC(=O)c1cnc(SC)nc1NCCc1c[nH]cn1` [CBK086623], for which the “% of control remaining” value was determined as 127.373%.

For `O=C(CSc1ccccn1)Nc1ccc2ccccc2c1` [CBK263860], the “% of control remaining” value was found to be 113.138%.

`COc1ccccc1Cc1cccc(C2CCN(CC(=O)Nc3nccs3)CC2)n1` [CBK286227]: the “% of control remaining” value was determined as 107.329%.

For the compound `O=C(C1CCCC1)N1CCCC(c2nccnc2-c2cccc(C(F)(F)F)c2)C1` (stereo not shown) [CBK286221], the “% of control remaining” value was found to be 84.3725%.

Regarding `COc1ccc(-c2ccc(CCC(=O)O)n2CCc2ccccc2)cc1` [CBK265929], the “% of control remaining” value was determined as 78.1184%.

On to `CC(Cc1cccs1)C(=O)N1CCn2cnnc2C1` (stereo not shown) [CBK282109], for which the “% of control remaining” value was determined as 135.923%.

Consider `O=[N+]([O-])c1cc(S(=O)(=O)n2ccc3ccccc32)ccc1N1CCNCC1` [CBK024593C], for which the “% of control remaining” value is 86.4818%.

On to `O=C(Nc1ccc2ncccc2c1)c1ccc(F)cc1Cl` [CBK159796], for which the “% of control remaining” value stood at 106.813%.

For `Cc1cc(=O)n2ncnc2n1COCCO` [CBK262919], the “% of control remaining” value is 106.032%.

For the compound `Clc1ccc2nc(-c3ccccn3)[nH]c2c1` [CBK000116], the “% of control remaining” value is on record as 32.6135%.

Regarding `O=C(Nc1ncc(Cl)s1)C1CC(=O)N(C2CC2)C1` (stereo not shown) [CBK175551], the “% of control remaining” value turned out to be 154.2%.

On to `N#Cc1ccccc1/C=N/NC(=O)COc1ccc(-c2cc(-c3ccccc3)c3cc(Cl)ccc3n2)cc1` [CBK263337], for which the “% of control remaining” value is 100%.

For `COC(=O)c1sccc1NS(=O)(=O)c1ccc2ccccc2c1` [CBK004500], the “% of control remaining” value was determined as 95.2246%.

In the case of `CCc1nn(CC(=O)NC(C)C)c(=O)c2cc3ccsc3n12` [CBK284131], the “% of control remaining” value was determined as 133.539%.
